Measurements from PubChem BioAssay AID1347426 (Functional Genomics Laboratory (NCATS/FGL), 2020).
Hit rate of the full screen: of about 31,000 sequences, about 1,400 (4.5%) were called active.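 How the source made its calls: active means median seed-adjusted z-score above 1 or below -1; inactive means the rest.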 The list shows a part of the results.

Experiment: Novel Modifiers of Survival Motor Neuron (SMN) Protein: Gene Identification via Genome-wide siRNA Screen;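 further: luminescence tracks full-length SMN protein made from the SMN2 reporter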
Details: HEK293T SMN2-luciferase reporter, siRNA knockdown, 72 h; actives lie on both sides
Summary of the method: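 HEK293T cells stably expressing an SMN2 splicing/cDNA-luciferase reporter were reverse-transfected with a druggable-genome siRNA library and read by luminescence at 72 hours; hits defined by MAD score above 1.0 or below -1.0.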

Row | Sequence | median seed-adjusted z-score
1 | GGCCUUUACUCGAGUCAAUTT against ZNF331 | inactive: 0.415
2 | CCACAAUGAGAGUACCUGUTT against AGT | inactive: -0.121
3 | GAAGAGGAGGUUUAAGCAATT against RASL11B | inactive: 0.507
4 | ACCUCGCUGUGUCACUCAUTT against ZDHHC12 | inactive: -0.0312
5 | CUGUUUGACUUCAUCGAGATT against COPG | inactive: 0.175
6 | GGAUGUGAGAAUUCGGAAATT against PHC3 | inactive: -0.204
7 | CAAACUCUACAUCACCUUUTT against GPR32 | active: -1.2
8 | GGAUGAAAAACAGAUUACATT against CD200R1 | inactive: 0.0679
9 | ACACUUUGUUCAACCUGCATT against EVX2 | inactive: 0.181
10 | GCUGCGUUUCUACAACAAATT against SLC37A3 | inactive: 0.246
11 | CACUUGGACUAGCUCAAUATT against THRB | inactive: 0.324
12 | GAGAAAUCGUGCUCAGUUATT against CNOT8 | inactive: 0.375
13 | GUAUUUCGAGUAAGUCUAATT against TTPA | inactive: -0.208
14 | CCAUCAACACUGAAUUGCATT against SEC22B | inactive: -0.106
15 | GAAAACCAAUCUAAACAUUTT against ZNF33A | inactive: 0.0628
16 | CAUUAGCAGUUGUCCCGUUTT against P2RY10 | inactive: -0.432
17 | CCGCAGCAUCUAUUUCUCATT against MPG | inactive: -0.0888
18 | CUCACAACAAAUUACUUAATT against CYP2C9 | inactive: 0.246
19 | GGGUCUAUAUGCAUCCGGATT against TBR1 | inactive: -0.388
20 | CAACCGAAAUUUGAAAGAATT against SOX13 | inactive: 0.867
21 | GACCUUCAGCUAUCACUCUTT against ZNF80 | inactive: 0.906
22 | UCCUGACCGUCAUAGAGCATT against NEDD9 | inactive: 0

Taken from above:
ACCUCGCUGUGUCACUCAUTT against ZDHHC12 – median seed-adjusted z-score: inactive: -0.0312
ACACUUUGUUCAACCUGCATT against EVX2 – median seed-adjusted z-score: inactive: 0.181

Reformatted as a markdown table: entries from further up

| Row | Sequence | median seed-adjusted z-score |
| --- | --- | --- |
| 10 | GCUGCGUUUCUACAACAAATT against SLC37A3 | inactive: 0.246 |
| 11 | CACUUGGACUAGCUCAAUATT against THRB | inactive: 0.324 |
| 12 | GAGAAAUCGUGCUCAGUUATT against CNOT8 | inactive: 0.375 |

Remaining list, next part

Row | Sequence | median seed-adjusted z-score
23 | CUACGACACGGAUCAAGGATT against FN3KRP | inactive: 0.00247
24 | GGCUGAUUUUGCAGAGUUATT against PRCP | inactive: -0.481
25 | CAAGAUCCAUAAACUUUUATT against TSSK1B | inactive: -0.169
26 | CCAAAGACUCCAUCCAGAATT against DCI | inactive: 0.469
27 | ACAUCAUCUCAGUGGUUUATT against RNASE8 | inactive: 0.00771
28 | GUUAUGCACUUUACCCUUUTT against ARL15 | inactive: -0.944
29 | CCACAAGCGUACUCAUACATT against ZIC5 | inactive: 0
30 | UAGACGUCUUUUCCCGAUATT against S100P | inactive: -0.00831
31 | CCGGUCAUGUCCAAAGUAATT against HDAC1 | inactive: -0.61
32 | CUACCCAACAAGAACCAGATT against ECEL1 | inactive: -0.301
33 | AGGAUUACCUCGCCCUGAATT against HLA-G | inactive: 0.0348
34 | GUGAUACCCAAGAAACAUATT against HINT1 | inactive: 0.873
35 | CCAACCCAACACUAACUAATT against PEX13 | inactive: 0
36 | CUGUUGAAAUGUAAAACGATT against VNN1 | inactive: 0.549
37 | CCACACCAGUCAGAGUCAATT against ZNF497 | inactive: -0.33
38 | CAGUGCUGUUAGAAUAAAATT against ZNHIT1 | inactive: -0.497
39 | CGUCGUUCAGCAUCGAGAATT against FOXD3 | inactive: 0.224
40 | CCAAGGAGCUUACUAUGGATT against SETDB2 | inactive: 0.417
41 | GCACCUUCAUCGCAACAAUTT against AATK | inactive: -0.621
42 | GAUAGCAACUGAAAACGGATT against SVOP | inactive: 0
43 | GUGUCUUCAUGGUCAACAATT against HTR4 | inactive: 0.444
44 | CAAACUUCCAGGACUGCUATT against ABCF3 | inactive: 0.0759

Row | Sequence | median seed-adjusted z-score
45 | ACAGAGACCUGAAAUCCGATT against PINK1 | inactive: 0.192
46 | GCACUAUAUGAAUACGCAATT against AUP1 | inactive: 0.305
47 | CCUUCAAUCACCGACCUUATT against SYNJ2 | inactive: 0.0202
48 | GGCUUACAAUGACAAGAUUTT against HECW2 | inactive: 0.38
49 | CAAGUAUCGUGGAUCAAAATT against CD1E | inactive: -0.133
50 | AGAUCAAGUUUGCCCUAAATT against HDGF2 | inactive: 0
51 | CAGCUAUUCGGAGUCCAAATT against PVR | inactive: -0.324
52 | GGACCUCAAAGUUGUCUAUTT against AP1S1 | active: -1.04
53 | GCUGGAUAUUCUCACAAUATT against PDE4B | inactive: 0.546
54 | GCGUCGUUCAUGCUCUAAATT against FGA | inactive: 0.267
55 | CCCUUACCAUGGAUAGCAATT against BDNF | inactive: 0
56 | CCAGAGUCACGGUCGAUCATT against PGPEP1 | inactive: -0.0356
57 | CGAGUGAGGUGUACAUUGCTT against CAPN10 | inactive: 0.364
58 | ACAUCUUCCUUAUUGUGGATT against HCN2 | inactive: 0
59 | GUAUUACCAGAGACCCAUATT against CYP11A1 | inactive: 0.0202
60 | CCAUCACCUAUGCUAUUCATT against LHCGR | inactive: -0.152
61 | GAGUCCUAUUACCAGCUCATT against SRM | inactive: 0
62 | UGAGAUAACUCACCACUGUTT against CDC42 | inactive: -0.0938
63 | GGUCCCUGUUGAGAAACGATT against TOP1 | inactive: 0.0303
64 | CCAUCAUCGUGAACAUCAUTT against SYT7 | inactive: -0.762
65 | GGAUAUUACUUUCGUGUAATT against MSH2 | inactive: 0
66 | CUUGGAUCCUCACACCAAATT against NID2 | inactive: 0.283

Row | Sequence | median seed-adjusted z-score
67 | CAAUGAGUCAGAUAUCGAATT against WNK1 | inactive: -0.121
68 | CCGUGUUAUGGAUCAAUGATT against DHX40 | inactive: -0.75
69 | UGAAUGCUGUAGUCCAUUATT against GPR182 | inactive: -0.136
70 | GGUGGAAUACUAUCCAGUUTT against COL12A1 | inactive: 0.00422
71 | CGGGCACAAUUAUCUCAGATT against SLC9A3 | inactive: 0.422
72 | GCAUGGAGCUAGCUGUGGATT against LTK | inactive: -0.0881
73 | GGAGAGACAAUGACCAAGATT against TRPS1 | inactive: -0.125
74 | GGACUAUCAGGAUAACAAATT against EIF1AY | inactive: 0.00168
75 | GGACUUAAGACAAUAGAGATT against SPATA5L1 | inactive: 0.252
76 | CCACGUAAAUAAGACCUAUTT against GUCY2C | inactive: -0.0181
77 | UCUGUUCACUGGACAGCAATT against TRPM5 | inactive: -0.0565
78 | CGACAUAGAUGACGAAAAATT against PABPC5 | inactive: -0.428
79 | CAUCCUCAUUCGAAAGUUUTT against PDCD6 | inactive: 0.325
80 | GCUAUAAACUCAACCCGAATT against PXDN | inactive: 0.771
81 | CAGAAGUUGUGCAAUCCAATT against ADAM32 | active: 1.75
82 | CAGCCGCUCUCGUCAAUGUTT against GGTLC2 | inactive: -0.288
83 | GGACUUUCCUGGAUCCUAUTT against ADAM30 | inactive: 0.0576
84 | UGAUAUCUGUGGGAUCAUUTT against IKZF1 | inactive: -0.298
85 | GAAUAAUGACGUAUUGUGATT against SNCA | inactive: 0.36
86 | GCAACGAGUUCAACCUGGATT against RAB11B | inactive: -0.857
87 | GGAGCUUCAGAUGAAGAUATT against DNAJB4 | inactive: -0.12
88 | GCACAGGACUUCUAUGAGATT against PHKG1 | inactive: -0.153

Row | Sequence | median seed-adjusted z-score
89 | GGAAAUGUUUGAGUUUUCATT against PDX1 | inactive: 0
90 | UGAUGAUGCUUUUAAGACATT against SLC6A15 | inactive: 0.0939
91 | ACAGAUUAAUUUUUCCAUATT against RAC1 | inactive: -0.0348
92 | UGAGGACAAUCAUGAGGAATT against GABARAPL1 | inactive: 0.402
93 | AGACUACAACAGGCCCAAATT against ICAM1 | inactive: 0.345
94 | UGACCUGUCUGGUUGCACATT against ENG | inactive: -0.254
95 | GCAGGACUCAAGCAAGCUATT against STX12 | inactive: -0.797
96 | GGACGACCGUGUAUAGUUUTT against RFESD | inactive: -0.503
97 | GAGGAAAGGUUACAUUAAATT against ALKBH8 | inactive: -0.487
98 | CGAUGUUGAAAGUACGGGATT against SLC39A4 | inactive: 0.0304
99 | GCUCAGCCGAAAGAAGUCATT against MSI2 | inactive: 0.582
100 | GGUCAUAUGUGACGAGGGATT against RAD54L | inactive: -0.393
101 | CGCCAUCUGUGUAACUUCATT against CARD9 | inactive: -0.325
102 | GGCACGUCCAUUCCGAAGATT against CD82 | inactive: 0.102
103 | GGACCAGUCUGCCUAUGUATT against NXF5 | inactive: -0.396
104 | ACGUGUUUGCUUCCACAAATT against NEURL2 | active: 1.39
105 | CCAAGGACCUGGUCUGAAATT against CUGBP1 | inactive: 0.086
106 | GGGAGAAUAUGAGCCGAAATT against CNTN5 | inactive: -0.236
107 | CACCAAGCCUGACACCGUATT against EPHX1 | inactive: 0
108 | CGCAUCAUCUGUAUCCUUATT against GDI1 | inactive: 0.198
